Data taken from publication PMC4619610.
No constants are given. Whether binding was seen depends on the method and setting. For some of these results: Binding seen in cells or lysates may run through a third protein. Some binding calls cover weakened binding; strength is not graded here.

The chains behind the UniProt entries cited, without tags or fusion partners. Residues count along the entry.
UniProt Q8TDQ0, residues 22-301: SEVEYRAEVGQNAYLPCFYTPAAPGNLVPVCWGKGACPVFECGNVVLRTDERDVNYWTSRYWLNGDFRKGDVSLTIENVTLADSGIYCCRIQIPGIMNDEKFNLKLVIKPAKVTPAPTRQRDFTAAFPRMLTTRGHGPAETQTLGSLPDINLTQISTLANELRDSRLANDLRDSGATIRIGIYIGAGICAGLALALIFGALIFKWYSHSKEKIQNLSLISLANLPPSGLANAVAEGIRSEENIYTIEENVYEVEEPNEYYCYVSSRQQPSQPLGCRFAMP
UniProt P27986: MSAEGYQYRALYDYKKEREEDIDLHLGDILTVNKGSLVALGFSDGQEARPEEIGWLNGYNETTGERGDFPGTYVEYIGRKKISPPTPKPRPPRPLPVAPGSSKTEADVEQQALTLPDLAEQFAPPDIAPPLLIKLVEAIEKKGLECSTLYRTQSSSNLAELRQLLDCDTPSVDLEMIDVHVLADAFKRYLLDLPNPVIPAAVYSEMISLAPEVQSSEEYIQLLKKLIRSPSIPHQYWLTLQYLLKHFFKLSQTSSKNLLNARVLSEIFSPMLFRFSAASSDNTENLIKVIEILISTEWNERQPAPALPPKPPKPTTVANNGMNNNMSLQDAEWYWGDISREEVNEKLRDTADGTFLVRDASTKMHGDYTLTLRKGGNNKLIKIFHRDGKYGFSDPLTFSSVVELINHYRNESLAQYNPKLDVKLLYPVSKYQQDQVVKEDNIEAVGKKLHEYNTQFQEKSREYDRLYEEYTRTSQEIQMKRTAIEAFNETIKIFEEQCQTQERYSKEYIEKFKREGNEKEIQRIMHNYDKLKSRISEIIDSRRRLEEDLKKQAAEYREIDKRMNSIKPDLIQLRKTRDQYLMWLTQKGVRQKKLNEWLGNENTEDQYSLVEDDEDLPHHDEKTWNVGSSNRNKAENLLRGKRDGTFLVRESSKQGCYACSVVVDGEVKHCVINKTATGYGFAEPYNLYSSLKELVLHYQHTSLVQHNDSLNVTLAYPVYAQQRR
UniProt P43403: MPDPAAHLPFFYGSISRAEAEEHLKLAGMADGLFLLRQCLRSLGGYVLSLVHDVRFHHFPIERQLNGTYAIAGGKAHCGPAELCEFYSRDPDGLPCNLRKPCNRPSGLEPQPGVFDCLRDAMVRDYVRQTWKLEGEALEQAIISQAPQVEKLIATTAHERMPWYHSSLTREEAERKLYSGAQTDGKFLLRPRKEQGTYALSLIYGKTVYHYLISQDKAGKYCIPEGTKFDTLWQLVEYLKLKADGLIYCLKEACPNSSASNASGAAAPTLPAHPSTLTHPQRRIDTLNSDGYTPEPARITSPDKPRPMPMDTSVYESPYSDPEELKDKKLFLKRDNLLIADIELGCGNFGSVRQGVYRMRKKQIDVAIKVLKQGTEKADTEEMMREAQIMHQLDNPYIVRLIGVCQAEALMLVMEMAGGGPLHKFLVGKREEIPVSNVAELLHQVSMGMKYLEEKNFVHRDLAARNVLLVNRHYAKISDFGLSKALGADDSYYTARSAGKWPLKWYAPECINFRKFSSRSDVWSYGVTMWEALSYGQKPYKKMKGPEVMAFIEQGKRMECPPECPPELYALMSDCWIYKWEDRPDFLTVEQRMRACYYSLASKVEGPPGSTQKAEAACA

Tests used:
[1] = target: TIM-3 (T cell immunoglobulin and mucin-domain containing protein 3) (human (endogenous in primary human CD8+ T cells)) (UniProt Q8TDQ0); test: co-IP; unstimulated (basal state) CD8+/MART-1+ primary human T cells; ~2 mg lysate, biotinylated anti-TIM-3 polyclonal antibody on magnetic streptavidin beads; capillary electrophoresis western
[2] = target: p85α PI-3K subunit (spotted on the ProtoArray) (human) (UniProt P27986); test: peptide or protein array; biotinylated TIM-3 peptides at 2.5 and 25 μM probed on 9,000 human proteins printed on the Life Technologies ProtoArray (Small Molecule-Protein Interaction profiling service); data not shown; both purified
[3] = target: TIM-3 (T cell immunoglobulin and mucin-domain containing protein 3) (human (endogenous in primary human CD8+ T cells)) (UniProt Q8TDQ0); test: co-IP; CD8+/MART-1+ primary human T cells stimulated 15 min with anti-CD3/CD28 beads; ~2 mg lysate, biotinylated anti-TIM-3 polyclonal antibody on magnetic streptavidin beads; capillary electrophoresis western

Molecule	binding [1]	other results
p85α PI-3K subunit (endogenous) (from UniProt P27986 1-724)	binds	–
ZAP-70 (endogenous) (from UniProt P43403 1-619) (enzyme)	binds	–
SEENIYTIEENVYEVEEP (biotin on the N-terminus; the tyrosine residues phosphorylated (Y265, Y272))	–	binding [2]: binds
Vav-1 (endogenous) (protein, UniProt P15498 1-845) MELWRQCTHWLIQCRVLPPSHRVTWDGAQVCELAQALRDGVLLCQLLNNLLPHAINLREVNLRPQMSQFLCLKNIRTFLSTCCEKFGLKRSELFEAFDLFDVQDFGKVIYTLSALSWTPIAQNRGIMPFPTEEESVGDEDIYSGLSDQIDDTVEEDEDLYDCVENEEAEGDEIYEDLMRSEPVSMPPKMTEYDKRCCCLREIQQTEEKYTDTLGSIQQHFLKPLQRFLKPQDIEIIFINIEDLLRVHTHFLKEMKEALGTPGAANLYQVFIKYKERFLVYGRYCSQVESASKHLDRVAAAREDVQMKLEECSQRANNGRFTLRDLLMVPMQRVLKYHLLLQELVKHTQEAMEKENLRLALDAMRDLAQCVNEVKRDNETLRQITNFQLSIENLDQSLAHYGRPKIDGELKITSVERRSKMDRYAFLLDKALLICKRRGDSYDLKDFVNLHSFQVRDDSSGDRDNKKWSHMFLLIEDQGAQGYELFFKTRELKKKWMEQFEMAISNIYPENATANGHDFQMFSFEETTSCKACQMLLRGTFYQGYRCHRCRASAHKECLGRVPPCGRHGQDFPGTMKKDKLHRRAQDKKRNELGLPKMEVFQEYYGLPPPPGAIGPFLRLNPGDIVELTKAEAEQNWWEGRNTSTNEIGWFPCNRVKPYVHGPPQDLSVHLWYAGPMERAGAESILANRSDGTFLVRQRVKDAAEFAISIKYNVEVKHIKIMTAEGLYRITEKKAFRGLTELVEFYQQNSLKDCFKSLDTTLQFPFKEPEKRTISRPAVGSTKYFGTAKARYDFCARDRSELSLKEGDIIKILNKKGQQGWWRGEIYGRVGWFPANYVEEDYSEYC	binds	–
SLP-76 (endogenous) (protein, UniProt Q13094 1-533) MALRNVPFRSEVLGWDPDSLADYFKKLNYKDCEKAVKKYHIDGARFLNLTENDIQKFPKLRVPILSKLSQEINKNEERRSIFTRKPQVPRFPEETESHEEDNGGWSSFEEDDYESPNDDQDGEDDGDYESPNEEEEAPVEDDADYEPPPSNDEEALQNSILPAKPFPNSNSMYIDRPPSGKTPQQPPVPPQRPMAALPPPPAGRNHSPLPPPQTNHEEPSRSRNHKTAKLPAPSIDRSTKPPLDRSLAPFDREPFTLGKKPPFSDKPSIPAGRSLGEHLPKIQKPPLPPTTERHERSSPLPGKKPPVPKHGWGPDRRENDEDDVHQRPLPQPALLPMSSNTFPSRSTKPSPMNPLPSSHMPGAFSESNSSFPQSASLPPYFSQGPSNRPPIRAEGRNFPLPLPNKPRPPSPAEEENSLNEEWYVSYITRPEAEAALRKINQDGTFLVRDSSKKTTTNPYVLMVLYKDKVYNIQIRYQKESQVYLLGTGLRGKEDFLSVSDIIDYFRKMPLLLIDGKNRGSRYQCTLTHAAGYP	binds	–
3BP2 (SH3BP2) (endogenous) (protein, UniProt P78314 1-561) MAAEEMHWPVPMKAIGAQNLLTMPGGVAKAGYLHKKGGTQLQLLKWPLRFVIIHKRCVYYFKSSTSASPQGAFSLSGYNRVMRAAEETTSNNVFPFKIIHISKKHRTWFFSASSEEERKSWMALLRREIGHFHEKKDLPLDTSDSSSDTDSFYGAVERPVDISLSPYPTDNEDYEHDDEDDSYLEPDSPEPGRLEDALMHPPAYPPPPVPTPRKPAFSDMPRAHSFTSKGPGPLLPPPPPKHGLPDVGLAAEDSKRDPLCPRRAEPCPRVPATPRRMSDPPLSTMPTAPGLRKPPCFRESASPSPEPWTPGHGACSTSSAAIMATATSRNCDKLKSFHLSPRGPPTSEPPPVPANKPKFLKIAEEDPPREAAMPGLFVPPVAPRPPALKLPVPEAMARPAVLPRPEKPQLPHLQRSPPDGQSFRSFSFEKPRQPSQADTGGDDSDEDYEKVPLPNSVFVNTTESCEVERLFKATSPRGEPQDGLYCIRNSSTKSGKVLVVWDETSNKVRNYRIFEKDSKFYLEGEVLFVSVGSMVEHYHTHVLPSHQSLLLRHPYGYTGPR	binds	–
PLCγ1 (Phospholipase C) (endogenous) (enzyme, UniProt P19174 1-1290) MAGAASPCANGCGPGAPSDAEVLHLCRSLEVGTVMTLFYSKKSQRPERKTFQVKLETRQITWSRGADKIEGAIDIREIKEIRPGKTSRDFDRYQEDPAFRPDQSHCFVILYGMEFRLKTLSLQATSEDEVNMWIKGLTWLMEDTLQAPTPLQIERWLRKQFYSVDRNREDRISAKDLKNMLSQVNYRVPNMRFLRERLTDLEQRSGDITYGQFAQLYRSLMYSAQKTMDLPFLEASTLRAGERPELCRVSLPEFQQFLLDYQGELWAVDRLQVQEFMLSFLRDPLREIEEPYFFLDEFVTFLFSKENSVWNSQLDAVCPDTMNNPLSHYWISSSHNTYLTGDQFSSESSLEAYARCLRMGCRCIELDCWDGPDGMPVIYHGHTLTTKIKFSDVLHTIKEHAFVASEYPVILSIEDHCSIAQQRNMAQYFKKVLGDTLLTKPVEISADGLPSPNQLKRKILIKHKKLAEGSAYEEVPTSMMYSENDISNSIKNGILYLEDPVNHEWYPHYFVLTSSKIYYSEETSSDQGNEDEEEPKEVSSSTELHSNEKWFHGKLGAGRDGRHIAERLLTEYCIETGAPDGSFLVRESETFVGDYTLSFWRNGKVQHCRIHSRQDAGTPKFFLTDNLVFDSLYDLITHYQQVPLRCNEFEMRLSEPVPQTNAHESKEWYHASLTRAQAEHMLMRVPRDGAFLVRKRNEPNSYAISFRAEGKIKHCRVQQEGQTVMLGNSEFDSLVDLISYYEKHPLYRKMKLRYPINEEALEKIGTAEPDYGALYEGRNPGFYVEANPMPTFKCAVKALFDYKAQREDELTFIKSAIIQNVEKQEGGWWRGDYGGKKQLWFPSNYVEEMVNPVALEPEREHLDENSPLGDLLRGVLDVPACQIAIRPEGKNNRLFVFSISMASVAHWSLDVAADSQEELQDWVKKIREVAQTADARLTEGKIMERRKKIALELSELVVYCRPVPFDEEKIGTERACYRDMSSFPETKAEKYVNKAKGKKFLQYNRLQLSRIYPKGQRLDSSNYDPLPMWICGSQLVALNFQTPDKPMQMNQALFMTGRHCGYVLQPSTMRDEAFDPFDKSSLRGLEPCAISIEVLGARHLPKNGRGIVCPFVEIEVAGAEYDSTKQKTEFVVDNGLNPVWPAKPFHFQISNPEFAFLRFVVYEEDMFSDQNFLAQATFPVKGLKTGYRAVPLKNNYSEDLELASLLIKIDIFPAKENGDLSPFSGTSLRERGSDASGQLFHGRAREGSFESRYQQPFEDFRISQEHLADHFDSRERRAPRRTRVNGDNRL	–	binding [3]: binds
